Reference: article PMC12308066
Results are given in words; binding and its absence hold for the method and conditions named. In cells and extracts the contact can be indirect. Some binding calls cover weakened binding; strength is not graded here. Sequences can lack the tags named with a protein.

Amino acid sequences for entries named in this document (tags omitted).
UniProt P04150: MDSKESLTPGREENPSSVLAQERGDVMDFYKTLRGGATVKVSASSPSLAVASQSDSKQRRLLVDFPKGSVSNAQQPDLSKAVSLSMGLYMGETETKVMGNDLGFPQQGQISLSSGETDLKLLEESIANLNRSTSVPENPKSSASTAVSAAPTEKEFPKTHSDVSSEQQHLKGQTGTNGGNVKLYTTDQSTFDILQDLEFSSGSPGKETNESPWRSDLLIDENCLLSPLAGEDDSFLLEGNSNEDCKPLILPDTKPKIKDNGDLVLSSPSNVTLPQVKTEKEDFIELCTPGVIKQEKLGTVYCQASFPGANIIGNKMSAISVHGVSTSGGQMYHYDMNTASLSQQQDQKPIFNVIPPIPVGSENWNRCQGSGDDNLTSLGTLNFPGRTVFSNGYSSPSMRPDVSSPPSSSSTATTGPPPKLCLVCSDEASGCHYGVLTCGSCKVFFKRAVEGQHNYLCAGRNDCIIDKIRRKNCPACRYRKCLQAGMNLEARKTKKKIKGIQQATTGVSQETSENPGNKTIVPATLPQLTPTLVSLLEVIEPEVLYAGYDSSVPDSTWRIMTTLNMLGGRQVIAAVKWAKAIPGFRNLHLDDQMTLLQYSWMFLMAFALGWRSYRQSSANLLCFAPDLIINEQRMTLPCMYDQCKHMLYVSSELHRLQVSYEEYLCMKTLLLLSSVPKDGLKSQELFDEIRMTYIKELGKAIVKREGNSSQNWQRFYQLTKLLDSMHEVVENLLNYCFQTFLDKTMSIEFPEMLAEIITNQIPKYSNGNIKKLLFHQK

Molecular target: nuclear receptor subfamily 3 group C member 1 (NR3C1), HA-tagged (UniProt P04150)
Experiment: co-IP; CR cell lines; NR3C1-HA and OGT-Flag cotransfected; NP-40 lysate; anti-HA or anti-Flag antibody or species-matched IgG overnight at 4 °C, protein A/G magnetic beads; Western blot

binding: binds
B1: O-GlcNAc transferase (OGT), Flag-tagged (enzyme, UniProt O15294 1-1046)
chain: MASSVGNVADSTEPTKRMLSFQGLAELAHREYQAGDFEAAERHCMQLWRQEPDNTGVLLLLSSIHFQCRRLDRSAHFSTLAIKQNPLLAEAYSNLGNVYKERGQLQEAIEHYRHALRLKPDFIDGYINLAAALVAAGDMEGAVQAYVSALQYNPDLYCVRSDLGNLLKALGRLEEAKACYLKAIETQPNFAVAWSNLGCVFNAQGEIWLAIHHFEKAVTLDPNFLDAYINLGNVLKEARIFDRAVAAYLRALSLSPNHAVVHGNLACVYYEQGLIDLAIDTYRRAIELQPHFPDAYCNLANALKEKGSVAEAEDCYNTALRLCPTHADSLNNLANIKREQGNIEEAVRLYRKALEVFPEFAAAHSNLASVLQQQGKLQEALMHYKEAIRISPTFADAYSNMGNTLKEMQDVQGALQCYTRAIQINPAFADAHSNLASIHKDSGNIPEAIASYRTALKLKPDFPDAYCNLAHCLQIVCDWTDYDERMKKLVSIVADQLEKNRLPSVHPHHSMLYPLSHGFRKAIAERHGNLCLDKINVLHKPPYEHPKDLKLSDGRLRVGYVSSDFGNHPTSHLMQSIPGMHNPDKFEVFCYALSPDDGTNFRVKVMAEANHFIDLSQIPCNGKAADRIHQDGIHILVNMNGYTKGARNELFALRPAPIQAMWLGYPGTSGALFMDYIITDQETSPAEVAEQYSEKLAYMPHTFFIGDHANMFPHLKKKAVIDFKSNGHIYDNRIVLNGIDLKAFLDSLPDVKIVKMKCPDGGDNADSSNTALNMPVIPMNTIAEAVIEMINRGQIQITINGFSISNGLATTQINNKAATGEEVPRTIIVTTRSQYGLPEDAIVYCNFNQLYKIDPSTLQMWANILKRVPNSVLWLLRFPAVGEPNIQQYAQNMGLPQNRIIFSPVAPKEEHVRRGQLADVCLDTPLCNGHTTGMDVLWAGTPMVTMPGETLASRVAASQLTCLGCLELIAKNRQEYEDIAVKLGTDLEYLKKVRGKVWKQRISSPLFNTKQYTMELERLYLQMWEHYAAGNKPDHMIKPVEVTESA
